US20160331798A1, “NATURAL PRODUCT INHIBITORS OF 3DG” (Dynamis Pharmaceuticals, Inc., priority 2008, published 2016)

Assay: Endogenous 3DG concentrations in natural product and chemical samples (GC-MS)
Details: Concentration 100 mM, in PBS

Row | SMILES | Levels of 3DG, 3DG Conc [µM]
1 | Cl.N[C@H]1C(O)O[C@H](CO)[C@@H](O)[C@@H]1O (stereo partly drawn) [Glucosamine HCl, D-Glucosamine HCl] | 1011.94
2 | NC[C@H]1CC[C@H](C(=O)O)CC1 [Tranexamic Acid, reference compound] | 54.69
